From article PMC4140637 come the findings set out here.

Protein sequences, listed by entry. Tags and fused reporters are not part of them.
UniProt Q9VU02: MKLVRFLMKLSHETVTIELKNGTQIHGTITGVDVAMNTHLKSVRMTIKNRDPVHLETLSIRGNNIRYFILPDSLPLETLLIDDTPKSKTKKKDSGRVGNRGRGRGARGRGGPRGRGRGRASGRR

No constants are given. Whether binding was seen depends on the method and setting. In cells and extracts the contact can be indirect. Some binding calls cover weakened binding; strength is not graded here. Tags and fused reporters may be left off the sequences shown.

The chains are these.
T1: FLAG-tagged wild-type Drosophila SMN (Flag-dSMN WT) (Drosophila melanogaster) (UniProt Q9VV74)
T1 sequence: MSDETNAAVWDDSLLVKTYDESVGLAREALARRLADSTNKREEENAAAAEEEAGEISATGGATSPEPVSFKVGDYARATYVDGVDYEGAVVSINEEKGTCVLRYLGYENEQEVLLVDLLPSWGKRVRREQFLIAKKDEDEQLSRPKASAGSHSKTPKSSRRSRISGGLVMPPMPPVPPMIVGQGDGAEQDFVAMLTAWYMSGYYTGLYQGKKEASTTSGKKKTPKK

T2: Myc-tagged Drosophila Gemin3 (Myc-dGem3) (Drosophila) (UniProt Q9V3C4)
T2 sequence: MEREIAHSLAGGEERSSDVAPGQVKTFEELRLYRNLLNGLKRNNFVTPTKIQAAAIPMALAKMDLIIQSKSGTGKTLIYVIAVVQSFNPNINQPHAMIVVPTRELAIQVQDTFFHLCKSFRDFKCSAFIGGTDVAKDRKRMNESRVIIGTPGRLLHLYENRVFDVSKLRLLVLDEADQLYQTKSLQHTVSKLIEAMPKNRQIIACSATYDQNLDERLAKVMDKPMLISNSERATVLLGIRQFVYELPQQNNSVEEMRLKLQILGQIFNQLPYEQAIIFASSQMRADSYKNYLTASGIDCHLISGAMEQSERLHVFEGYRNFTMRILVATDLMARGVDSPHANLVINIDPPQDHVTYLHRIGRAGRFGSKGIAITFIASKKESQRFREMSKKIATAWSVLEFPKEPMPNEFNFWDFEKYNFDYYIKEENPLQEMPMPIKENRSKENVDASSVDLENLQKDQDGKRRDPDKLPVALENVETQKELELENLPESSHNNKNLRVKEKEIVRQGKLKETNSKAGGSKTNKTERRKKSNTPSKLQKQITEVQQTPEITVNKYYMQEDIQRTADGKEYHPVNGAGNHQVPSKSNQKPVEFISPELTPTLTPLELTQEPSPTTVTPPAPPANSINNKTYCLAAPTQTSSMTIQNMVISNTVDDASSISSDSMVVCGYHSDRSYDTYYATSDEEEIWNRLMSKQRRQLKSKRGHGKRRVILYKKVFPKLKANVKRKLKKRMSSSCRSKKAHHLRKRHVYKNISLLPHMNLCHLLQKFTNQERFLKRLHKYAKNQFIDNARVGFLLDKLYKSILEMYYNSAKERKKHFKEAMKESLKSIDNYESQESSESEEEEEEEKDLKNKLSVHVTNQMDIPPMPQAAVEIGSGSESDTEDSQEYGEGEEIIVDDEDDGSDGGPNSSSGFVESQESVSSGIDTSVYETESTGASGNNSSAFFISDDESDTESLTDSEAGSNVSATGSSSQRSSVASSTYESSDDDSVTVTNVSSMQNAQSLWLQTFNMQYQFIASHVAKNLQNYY

B1: FLAG-tagged dSMN(M194R) (protein, UniProt Q9VV74 1-226)
chain: MSDETNAAVWDDSLLVKTYDESVGLAREALARRLADSTNKREEENAAAAEEEAGEISATGGATSPEPVSFKVGDYARATYVDGVDYEGAVVSINEEKGTCVLRYLGYENEQEVLLVDLLPSWGKRVRREQFLIAKKDEDEQLSRPKASAGSHSKTPKSSRRSRISGGLVMPPMPPVPPMIVGQGDGAEQDFVARLTAWYMSGYYTGLYQGKKEASTTSGKKKTPKK
B2: FLAG-tagged dSMN(D20V) (protein, UniProt Q9VV74 1-226)
chain: MSDETNAAVWDDSLLVKTYVESVGLAREALARRLADSTNKREEENAAAAEEEAGEISATGGATSPEPVSFKVGDYARATYVDGVDYEGAVVSINEEKGTCVLRYLGYENEQEVLLVDLLPSWGKRVRREQFLIAKKDEDEQLSRPKASAGSHSKTPKSSRRSRISGGLVMPPMPPVPPMIVGQGDGAEQDFVAMLTAWYMSGYYTGLYQGKKEASTTSGKKKTPKK
B3: FLAG-tagged dSMN(T205I) (protein, UniProt Q9VV74 1-226)
chain: MSDETNAAVWDDSLLVKTYDESVGLAREALARRLADSTNKREEENAAAAEEEAGEISATGGATSPEPVSFKVGDYARATYVDGVDYEGAVVSINEEKGTCVLRYLGYENEQEVLLVDLLPSWGKRVRREQFLIAKKDEDEQLSRPKASAGSHSKTPKSSRRSRISGGLVMPPMPPVPPMIVGQGDGAEQDFVAMLTAWYMSGYYIGLYQGKKEASTTSGKKKTPKK
B4: dSMN(F70S) (protein, UniProt Q9VV74 1-226)
chain: MSDETNAAVWDDSLLVKTYDESVGLAREALARRLADSTNKREEENAAAAEEEAGEISATGGATSPEPVSSKVGDYARATYVDGVDYEGAVVSINEEKGTCVLRYLGYENEQEVLLVDLLPSWGKRVRREQFLIAKKDEDEQLSRPKASAGSHSKTPKSSRRSRISGGLVMPPMPPVPPMIVGQGDGAEQDFVAMLTAWYMSGYYTGLYQGKKEASTTSGKKKTPKK
B5: FLAG-tagged dSMN(G210V) (protein, UniProt Q9VV74 1-226)
chain: MSDETNAAVWDDSLLVKTYDESVGLAREALARRLADSTNKREEENAAAAEEEAGEISATGGATSPEPVSFKVGDYARATYVDGVDYEGAVVSINEEKGTCVLRYLGYENEQEVLLVDLLPSWGKRVRREQFLIAKKDEDEQLSRPKASAGSHSKTPKSSRRSRISGGLVMPPMPPVPPMIVGQGDGAEQDFVAMLTAWYMSGYYTGLYQVKKEASTTSGKKKTPKK
B6: dSMN(G73R) (protein, UniProt Q9VV74 1-226)
chain: MSDETNAAVWDDSLLVKTYDESVGLAREALARRLADSTNKREEENAAAAEEEAGEISATGGATSPEPVSFKVRDYARATYVDGVDYEGAVVSINEEKGTCVLRYLGYENEQEVLLVDLLPSWGKRVRREQFLIAKKDEDEQLSRPKASAGSHSKTPKSSRRSRISGGLVMPPMPPVPPMIVGQGDGAEQDFVAMLTAWYMSGYYTGLYQGKKEASTTSGKKKTPKK
B7: FLAG-tagged dSMN(G206S) (protein, UniProt Q9VV74 1-226)
chain: MSDETNAAVWDDSLLVKTYDESVGLAREALARRLADSTNKREEENAAAAEEEAGEISATGGATSPEPVSFKVGDYARATYVDGVDYEGAVVSINEEKGTCVLRYLGYENEQEVLLVDLLPSWGKRVRREQFLIAKKDEDEQLSRPKASAGSHSKTPKSSRRSRISGGLVMPPMPPVPPMIVGQGDGAEQDFVAMLTAWYMSGYYTSLYQGKKEASTTSGKKKTPKK
B8: dSMN(V72G) (protein, UniProt Q9VV74 1-226)
chain: MSDETNAAVWDDSLLVKTYDESVGLAREALARRLADSTNKREEENAAAAEEEAGEISATGGATSPEPVSFKGGDYARATYVDGVDYEGAVVSINEEKGTCVLRYLGYENEQEVLLVDLLPSWGKRVRREQFLIAKKDEDEQLSRPKASAGSHSKTPKSSRRSRISGGLVMPPMPPVPPMIVGQGDGAEQDFVAMLTAWYMSGYYTGLYQGKKEASTTSGKKKTPKK
B9: dSMN(G210C) (protein, UniProt Q9VV74 1-226)
chain: MSDETNAAVWDDSLLVKTYDESVGLAREALARRLADSTNKREEENAAAAEEEAGEISATGGATSPEPVSFKVGDYARATYVDGVDYEGAVVSINEEKGTCVLRYLGYENEQEVLLVDLLPSWGKRVRREQFLIAKKDEDEQLSRPKASAGSHSKTPKSSRRSRISGGLVMPPMPPVPPMIVGQGDGAEQDFVAMLTAWYMSGYYTGLYQCKKEASTTSGKKKTPKK
B10: dSMN(I93F) (protein, UniProt Q9VV74 1-226)
chain: MSDETNAAVWDDSLLVKTYDESVGLAREALARRLADSTNKREEENAAAAEEEAGEISATGGATSPEPVSFKVGDYARATYVDGVDYEGAVVSFNEEKGTCVLRYLGYENEQEVLLVDLLPSWGKRVRREQFLIAKKDEDEQLSRPKASAGSHSKTPKSSRRSRISGGLVMPPMPPVPPMIVGQGDGAEQDFVAMLTAWYMSGYYTGLYQGKKEASTTSGKKKTPKK
B11: FLAG-tagged dSMN(Y203C) (protein, UniProt Q9VV74 1-226)
chain: MSDETNAAVWDDSLLVKTYDESVGLAREALARRLADSTNKREEENAAAAEEEAGEISATGGATSPEPVSFKVGDYARATYVDGVDYEGAVVSINEEKGTCVLRYLGYENEQEVLLVDLLPSWGKRVRREQFLIAKKDEDEQLSRPKASAGSHSKTPKSSRRSRISGGLVMPPMPPVPPMIVGQGDGAEQDFVAMLTAWYMSGCYTGLYQGKKEASTTSGKKKTPKK
B12: dSMN(Y107C) (protein, UniProt Q9VV74 1-226)
chain: MSDETNAAVWDDSLLVKTYDESVGLAREALARRLADSTNKREEENAAAAEEEAGEISATGGATSPEPVSFKVGDYARATYVDGVDYEGAVVSINEEKGTCVLRYLGCENEQEVLLVDLLPSWGKRVRREQFLIAKKDEDEQLSRPKASAGSHSKTPKSSRRSRISGGLVMPPMPPVPPMIVGQGDGAEQDFVAMLTAWYMSGYYTGLYQGKKEASTTSGKKKTPKK
B13: FLAG-tagged wild-type Drosophila SMN (Flag-dSMN WT) (protein, UniProt Q9VV74 1-226)
chain: MSDETNAAVWDDSLLVKTYDESVGLAREALARRLADSTNKREEENAAAAEEEAGEISATGGATSPEPVSFKVGDYARATYVDGVDYEGAVVSINEEKGTCVLRYLGYENEQEVLLVDLLPSWGKRVRREQFLIAKKDEDEQLSRPKASAGSHSKTPKSSRRSRISGGLVMPPMPPVPPMIVGQGDGAEQDFVAMLTAWYMSGYYTGLYQGKKEASTTSGKKKTPKK

The first assay addresses SmD1 (UniProt Q9VU02). Kind of assay: co-IP; S2 cell co-transfection assay 'similar to that in Fig. 3'; no figure shown; tags and who was precipitated are not told.
Take B1: the binding result is on record as “binds”. Take B2: the binding result was “binds”. As for B3, the binding result is “binds”. Regarding B4, the binding entry is “binds”. The same measure, in the same setting: next, B5: “binds”; B6: “binds”. As for B7, the binding result was “binds”. In the case of B8, the binding result is on record as “binds”. On the same count and under the same terms, the result for B9 reads “binds”; that for B10, “binds”.

B11: the binding entry was “binds”. Turning to B12, the binding result is “binds”.

The next assay concerns the target T1, FLAG-tagged wild-type Drosophila SMN (Flag-dSMN WT) (Drosophila melanogaster). Kind of assay: co-IP; S2 cells co-transfected with FLAG-tagged dSMN and a Myc-tagged partner (dSMN or dGem2); lysis buffer 50 mM Tris-HCl pH 7.5, 150 mM NaCl, 1 mM EDTA, 1% NP-40, 10% glycerol; immunoprecipitation with anti-FLAG agarose, western blot with anti-Myc (Fig. 3A, 3B, 6A).
As to B13, the binding entry is given as “binds”.

In another assay the target is T2, Myc-tagged Drosophila Gemin3 (Myc-dGem3) (Drosophila). The assay is described as follows: co-IP; S2 cells co-transfected with Flag-dSMN and Myc-dGem3; immunoprecipitation of Myc-dGem3 with anti-Myc agarose, western blot with anti-FLAG (Fig. 3C). (In general: Immunoblotting shows a protein as a band on a membrane.)
Consider B13, for which the binding entry is given as “binds”. Regarding B3, the binding result is on record as “binds”.
